Data source: PubChem BioAssay AID720710 (VTT Finland, 2013)

Test: 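Knock-downs that leave cyclin E-high cells sensitive to replication stress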 (primary screen)
Cell system: human U-2 OS bone cancer cells, parental and a cyclin E (CCNE1) overexpressing line
Knock-down reagent: single siRNA against human genes, 1 µM siRNA in the printed spot mix
Timing: 67 h
Challenge: half the arrays: hydroxyurea 2 mM for 16 h, then 3 h recovery; other arrays untreated
Detection: 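DNA synthesis measured as imaged EdU uptake per nucleus (DAPI) at 67 h, normalised to subgrid median and given as z-score versus non-targeting controls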
Scale: EdU z-score, cyclin E line, hydroxyurea and EdU z-score, parental, hydroxyurea and EdU z-score, cyclin E line, untreated and EdU z-score, parental, untreated: higher = more DNA synthesis than non-targeting controls
Here is an unselected part of about 1,380 reagents tested. 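One array per condition without replicates; hydroxyurea arrays received 2 mM for 16 h plus 3 h recovery.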 Reagents against one gene are numbered here.

| Target gene | reagent | EdU z-score, cyclin E line, hydroxyurea | EdU z-score, parental, hydroxyurea | EdU z-score, cyclin E line, untreated | EdU z-score, parental, untreated |
| --- | --- | --- | --- | --- | --- |
| MAPK1 | 1 | 0.247 | -1.67 | 0.365 | -0.732 |
| MAPK1 | 2 | 2.84 | 1.24 | 0.442 | -0.54 |
| GINS2 | 1 | 0.576 | -5.41 | -1.57 | -1.1 |
| GINS2 | 2 | 1.62 | 0.622 | -0.322 | -0.789 |
| TREX1 | 1 | -1.36 | -1.93 | -3.4 | -0.655 |
| TREX1 | 2 | 0.595 | -1.09 | -1.44 | 0.176 |
| HDAC4 | 1 | 0.974 | -0.944 | -1.74 | -0.595 |
| HDAC4 | 2 | 1.69 | 0.435 | -0.495 | -0.217 |
| H4C1 | 1 | -2.08 | -7.07 | -1.01 | -2.3 |
| H4C1 | 2 | 0.467 | -1.7 | -0.82 | 1.08 |
| SIRT3 | 1 | -2.34 | -7.97 | -1.76 | -3.81 |
| SIRT3 | 2 | -0.361 | 0.594 | 0.21 | 1.83 |
| CBX2 | 1 | 0.462 | 0.114 | 0.0478 | -0.271 |
| CBX2 | 2 | 0.808 | 1.35 | 0.326 | 0.252 |
| BCL3 | 1 | -3.17 | 1.01 | 0.00761 | -0.189 |
| BCL3 | 2 | 1.35 | 1.65 | 0.106 | 0.476 |
| FHIT | 1 | -0.183 | -0.276 | -0.981 | -0.382 |
| FHIT | 2 | 0.883 | 1.27 | -0.229 | -0.113 |
| PCBP4 | 1 | 0.0323 | 0.859 | -0.418 | -2.01 |
| PCBP4 | 2 | 0.905 | 1.39 | -0.042 | 0.967 |
| BTG2 | 1 | -0.107 | 0.991 | -0.48 | -3.55 |
| BTG2 | 2 | 0.335 | 1.64 | 0.152 | 1.85 |
| NCAPG | 1 | -0.479 | -1.37 | -4.05 | 0.889 |
| NCAPG | 2 | 0.505 | -0.0877 | -1.48 | 1.09 |

Ordered by “EdU z-score, parental, hydroxyurea” (descending): 4 of the entries above.
| Target gene | reagent | EdU z-score, cyclin E line, hydroxyurea | EdU z-score, parental, hydroxyurea | EdU z-score, cyclin E line, untreated | EdU z-score, parental, untreated |
| --- | --- | --- | --- | --- | --- |
| BCL3 | 2 | 1.35 | 1.65 | 0.106 | 0.476 |
| CBX2 | 2 | 0.808 | 1.35 | 0.326 | 0.252 |
| BCL3 | 1 | -3.17 | 1.01 | 0.00761 | -0.189 |
| CBX2 | 1 | 0.462 | 0.114 | 0.0478 | -0.271 |
